# PubChem BioAssay AID686937 – Drosophila RNAi Screening Center – 2013
# Assay: 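Knock-downs that reduce output of a secreted reporter enzyme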 (primary screen)
# System: Drosophila S2 cells expressing secreted horseradish peroxidase
# Reagent: long dsRNA against Drosophila genes
# Timing: about 5.5 days (5 days dsRNA, then 12 h reporter induction)
# Treatment: reporter expression induced after 5 days of dsRNA, read 12 h later; inducer not stated
# Detection: 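After 5 days of dsRNA and 12 h of reporter induction, medium peroxidase read by chemiluminescence and scored as per-plate z-score; higher values mean more reporter released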
# Reading the numbers: z-score: higher = more reporter secreted into medium
# In all, the deposit lists about 23,000 reagents; this is a random part of those with a known target gene and a result. 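Reduced-secretion tags in replicate 1 do not always agree with the z-scores; no criterion for assigning the tags was given.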 The numbers tell different reagents against one gene apart. A plus sign joins genes that one reagent is predicted to hit. Not given: the amount of reagent.
The first 5 entries, to show the layout:
target,dsRNA no.,"z-score, replicate 1","z-score, replicate 2","z-score, replicate 3","z-score, replicate 4","phenotype, replicate 1"
CG5493 + CG5327,1,0.41,0.32,,,
CG34107,1,0.4,0.59,,,
Ets98B (Ets at 98B),1,0.51,0.33,-0.05,-0.12,
Fen1 (Flap endonuclease 1),1,-1.55,0.08,,,reduced secretion
Elk (Eag-like K[+] channel),1,0.17,0.36,,,

Main list, from the first entry:
target,dsRNA no.,"z-score, replicate 1","z-score, replicate 2","z-score, replicate 3","z-score, replicate 4","phenotype, replicate 1"
CG5493 + CG5327,1,0.41,0.32,,,
CG34107,1,0.4,0.59,,,
Ets98B (Ets at 98B),1,0.51,0.33,-0.05,-0.12,
Fen1 (Flap endonuclease 1),1,-1.55,0.08,,,reduced secretion
Elk (Eag-like K[+] channel),1,0.17,0.36,,,
CG3795,1,0.19,0.36,,,
CG9801,1,0.33,0.38,,,
Tsp42En (Tetraspanin 42En),1,0.17,0.24,,,
sd (scalloped),1,0.17,0.14,,,
sd (scalloped),2,0.3,0.7,,,
CG42449,1,0.56,0.39,0.68,0.54,
sff (sugar-free frosting),1,0.33,0.41,,,
Prosbeta5R1 (Proteasome beta5 subunit-related 1),1,-0.16,0.4,,,
CG17377,1,0.66,0.09,0.18,-0.03,
CG17377,2,0.17,0.31,,,
CG17377,3,2.13,0.94,,,
Nnf1a,1,0.21,0.12,,,
BigH1 (Histone H1 variant BigH1),1,0.21,0.09,,,
Ubc87F (Ubiquitin conjugating enzyme 87F),1,0.49,-0.08,,,
CG10301,1,0.42,0.26,,,
Achl (Achilles),1,0.24,0.11,,,
CG6650,1,0.37,0.36,,,
indra,1,0.32,0.27,,,
CG33232 (retired record),1,0.29,0.37,,,
CG33232 (retired record),2,0.48,-0.06,,,
CG32708,1,-0.47,0.26,,,
pncr004:X (retired record),1,0.29,-0.48,,,
Jhbp16 (Juvenile hormone binding protein 16),1,0.37,0.46,,,
Nuak (Nuak family kinase),1,0.53,0.58,,,
Nuak (Nuak family kinase),2,0.53,0.43,,,
Nuak (Nuak family kinase),3,0.62,0.58,,,
CG9368,1,0.15,0.3,,,
CG14006,1,0.23,0.01,,,
PHDP (Putative homeodomain protein),1,0.43,0.29,,,
CG15200,1,0.24,-0.05,,,
CG8132,1,0.67,0.73,,,
CG15111,1,1.15,1.24,,,
Cen (Centrocortin),1,0.5,0.61,,,
CG32379,1,-0.13,0.15,,,
CG40005 (retired record) + cta,1,0.61,0.32,,,
CG1271,1,0.5,0.2,,,
vib (vibrator),1,0.46,0.31,,,
CG8010,1,0.08,-0.02,,,
CG17508,1,0.13,0.24,,,
Unc-76 (Uncoordinated 76),1,0.2,0.33,,,
Unc-76 (Uncoordinated 76),2,0.37,0.32,,,
CG14234,1,0,0.51,,,
CG14234,2,0.15,0.27,,,
HemK1 (HemK methyltransferase 1),1,0.32,0.09,,,
GstE5 (Glutathione S transferase E5),1,0.14,-0.05,,,
CG14490,1,0.15,0,,,
CG12384,1,0.23,0.42,-0.25,-0.38,
"ArgRS-m (Arginyl-tRNA synthetase, mitochondrial)",1,0.36,0.26,0.17,0.24,
Pi4KIIalpha (Phosphatidylinositol 4-kinase II alpha),1,0.27,0.41,,,
Pi4KIIalpha (Phosphatidylinositol 4-kinase II alpha),2,0.71,0.63,,,
yem (yemanuclein),1,0.41,0.01,,,
yem (yemanuclein),2,0.57,0.55,,,
